In the data set the test system is bZIP60(s), spliced form (Nicotiana attenuata). Description: EMSA. Particulars: 300 ng protein, 30 ng probe, Chemiluminescent EMSA kit (Beyotime), manufacturer's protocol, 30 ng biotin probe, pH and temperature not stated, recombinant protein, protein details: His (pET28a), label: biotin.

For at least one entry, the source does not settle the construct or the ends of the probe.

Turning to “AATTTTTTTTACGTAAATGATTTTCTTTTACCTGAAAATTTCCCTTGA (double strand) [FBP1]”, the binding result (excess unlabeled FBP1 competes) is “binds”. As to “TAAGGGGCGTGAAAAGTTCAAAGT (double strand) [FBP2]”, under “excess unlabeled FBP2 competes”, the binding result is “binds”. As to “TTTTGCACTCAGTCAGGCTAAAATCG (double strand) [FBP3]”, under “excess unlabeled FBP3 competes”, the binding result is reported as “binds”.
